Assay results taken from article PMC10776994, “The SDS22:PP1:I3 complex: SDS22 binding to PP1 loosens the active site metal to prime metal exchange” (The Journal of Biological Chemistry, 2023).
Results are given in words; binding and its absence hold for the method and conditions named. Some entries that bind do so weakly or less than the wild type.

Sequences of proteins named here, by UniProt entry; tags and fusion partners are left off. Residues count along the entry.
UniProt P62136, residues 7-300: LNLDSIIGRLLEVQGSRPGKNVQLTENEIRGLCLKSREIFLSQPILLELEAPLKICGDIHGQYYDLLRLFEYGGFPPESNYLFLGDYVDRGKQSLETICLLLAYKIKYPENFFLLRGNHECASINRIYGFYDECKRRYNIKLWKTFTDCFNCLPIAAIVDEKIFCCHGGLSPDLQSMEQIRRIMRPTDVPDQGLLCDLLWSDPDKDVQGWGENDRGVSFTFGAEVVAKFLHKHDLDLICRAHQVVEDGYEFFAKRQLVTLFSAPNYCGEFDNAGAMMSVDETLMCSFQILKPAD

Molecular target: PP1α_(7-300) (UniProt P62136)
Test: crystal structure; SDS22_(56-360):PP1α_(7-300):I3_(27-68) (SPI) co-expressed in Expi293F; 3.2 Å, molecular replacement with PDB 6OBN; both purified

B1: I3_(27-68) (domain or fragment, human, UniProt O60927 27-68, looked up)
chain: SLTIKLRKRKPEKKVEWTSDTVDNEHMGRRSSKCCCIYEKPR
notes: source: E. coli BL21 (DE3), purified (Ni-NTA, TEV, heat 95 °C, SEC); not shown: His6, N-terminal, cleaved; MBP, N-terminal, cleaved
- binding: binds
